Laboratory results: patent US8952074B2, “Medicinal agent for treating patients suffering from diseases caused by the monoaminooxidase excessive activity and a method for treating patients suffering from diseases caused by the monoaminooxidase excessive activity” (priority 2007, dated 2015)
Some of these results come from one statement about several compounds together. At least one compound was matched to its structure with a doubt left.

Test system: MAO
Assay: MAO activity in sections of the brain (hypothalamus, medulla, striatum) after carbon tetrachloride
Type: in vivo, rat
Conditions: on average, by the 21st day

## C[N+](C)(C)CCOP(=O)([O-])OC[C@H](O)CO [Gliatilin, choline alfoscerate]
  Restoration of MAO function in comparison to the affected rats: 28-32%
  Restoration of MAO function in comparison to the intact rats: 66-70%
